Data reported in article PMC6728346.
No constants are given. Whether binding was seen depends on the method and setting. Binding seen in cells or lysates may run through a third protein. Some binding calls cover weakened binding; strength is not graded here. For part of these data: Tags and fused reporters may be left off the sequences shown.

Chains of the proteins cited; added tags and fusions are not shown. Lines headed by an entry give the natural chain unless they say otherwise; changes in a name come on top. A line that says so, or that is headed by a name, gives the form on record, which may keep a tag or linker.
UniProt P40763: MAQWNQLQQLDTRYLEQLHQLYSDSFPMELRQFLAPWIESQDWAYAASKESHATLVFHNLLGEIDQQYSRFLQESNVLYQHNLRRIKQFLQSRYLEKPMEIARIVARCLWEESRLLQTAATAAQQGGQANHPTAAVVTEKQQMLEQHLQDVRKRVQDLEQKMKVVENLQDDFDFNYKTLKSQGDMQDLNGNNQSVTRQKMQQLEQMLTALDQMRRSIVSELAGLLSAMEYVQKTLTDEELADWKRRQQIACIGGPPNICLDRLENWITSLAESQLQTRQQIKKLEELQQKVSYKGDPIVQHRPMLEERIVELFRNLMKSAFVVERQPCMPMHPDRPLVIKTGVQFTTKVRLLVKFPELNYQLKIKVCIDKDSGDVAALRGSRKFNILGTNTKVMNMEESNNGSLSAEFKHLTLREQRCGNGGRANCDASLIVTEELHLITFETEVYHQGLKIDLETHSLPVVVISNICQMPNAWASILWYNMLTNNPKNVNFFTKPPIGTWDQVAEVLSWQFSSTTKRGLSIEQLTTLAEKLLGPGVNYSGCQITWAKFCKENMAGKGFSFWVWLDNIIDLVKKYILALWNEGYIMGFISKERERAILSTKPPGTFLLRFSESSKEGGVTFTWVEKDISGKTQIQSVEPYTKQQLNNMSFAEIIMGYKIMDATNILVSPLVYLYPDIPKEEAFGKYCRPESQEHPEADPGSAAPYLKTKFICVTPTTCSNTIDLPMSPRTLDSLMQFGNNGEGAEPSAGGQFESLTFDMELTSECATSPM
UniProt P52294: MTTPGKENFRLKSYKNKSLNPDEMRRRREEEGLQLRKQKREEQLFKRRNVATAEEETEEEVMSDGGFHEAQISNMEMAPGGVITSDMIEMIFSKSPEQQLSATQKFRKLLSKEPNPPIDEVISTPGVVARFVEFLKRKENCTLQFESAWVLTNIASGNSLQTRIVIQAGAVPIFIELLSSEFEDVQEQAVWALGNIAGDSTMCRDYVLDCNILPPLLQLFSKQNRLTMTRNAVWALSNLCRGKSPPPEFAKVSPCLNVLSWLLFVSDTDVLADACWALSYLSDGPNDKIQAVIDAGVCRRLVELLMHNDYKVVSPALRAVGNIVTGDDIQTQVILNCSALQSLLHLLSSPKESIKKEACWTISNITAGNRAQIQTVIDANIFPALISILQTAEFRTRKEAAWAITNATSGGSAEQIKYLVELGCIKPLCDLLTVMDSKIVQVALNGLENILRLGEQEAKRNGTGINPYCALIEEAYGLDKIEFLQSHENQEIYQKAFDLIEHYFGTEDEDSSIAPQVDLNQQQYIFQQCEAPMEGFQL
macroH2A1.2 (mH2A1.2), endogenous (O75367-1, form named): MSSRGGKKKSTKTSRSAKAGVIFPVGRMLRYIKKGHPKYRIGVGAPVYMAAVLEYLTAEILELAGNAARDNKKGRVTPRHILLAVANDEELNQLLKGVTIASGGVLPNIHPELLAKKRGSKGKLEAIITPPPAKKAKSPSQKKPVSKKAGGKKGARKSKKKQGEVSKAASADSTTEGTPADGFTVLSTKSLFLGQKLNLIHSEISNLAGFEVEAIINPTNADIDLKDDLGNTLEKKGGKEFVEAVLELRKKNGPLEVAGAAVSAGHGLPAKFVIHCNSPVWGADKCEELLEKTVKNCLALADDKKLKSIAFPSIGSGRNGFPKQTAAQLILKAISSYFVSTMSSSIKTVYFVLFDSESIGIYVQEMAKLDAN

Legend:
[1] = biological target: T1, Tripartite motif-containing 59 (TRIM59), endogenous (human (endogenous in LN229 and U87)) (UniProt Q8IWR1); assay: co-IP; endogenous proteins; lysates of LN229 and U87 cells expressing EGFRvIII or EGFR, with or without EGF (100 ng/ml), one panel with Roscovitine (20 μM) pre-treatment; IP lysis buffer 20 mM Tris-HCl pH 7.5, 150 mM NaCl, 1 mM EDTA, 1% Triton X-100; protein G-agarose; WB
T1 sequence: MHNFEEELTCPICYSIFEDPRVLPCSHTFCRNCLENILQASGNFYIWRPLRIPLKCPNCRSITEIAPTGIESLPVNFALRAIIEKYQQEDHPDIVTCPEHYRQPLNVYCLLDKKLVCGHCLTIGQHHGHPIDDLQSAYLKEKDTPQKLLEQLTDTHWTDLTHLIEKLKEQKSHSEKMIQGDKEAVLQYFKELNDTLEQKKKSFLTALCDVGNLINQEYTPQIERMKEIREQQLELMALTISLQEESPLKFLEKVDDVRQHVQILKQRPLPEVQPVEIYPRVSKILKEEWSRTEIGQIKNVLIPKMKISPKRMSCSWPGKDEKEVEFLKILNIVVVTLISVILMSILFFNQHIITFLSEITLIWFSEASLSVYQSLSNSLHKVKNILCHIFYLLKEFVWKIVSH

[2] = biological target: Signal transducer and activator of transcription 3 (STAT3) (UniProt P40763); assay: co-IP; Supplementary Fig. 13: U87/EGFRvIII/shTRIM59 cells with empty vector or re-expressed TRIM59 WT, S308A or NLS mutant; TC45 association with STAT3; method not given
[3] = biological target: GST-CDK5 (human (cDNA amplified from U87 cells)) (UniProt Q00535); assay: pull-down; purified GST-CDK5 (glutathione beads) incubated with cell extracts from U87/EGFR cells with or without EGF stimulation for 30 min; WB; only the target purified
[4] = biological target: Cyclin-dependent kinase 5 (CDK5), endogenous (human (endogenous in LN229 and U87)) (UniProt Q00535); assay: co-IP; endogenous proteins; lysates of LN229 and U87 cells expressing EGFRvIII or EGFR, with or without EGF (100 ng/ml), one panel with Roscovitine (20 μM) pre-treatment; IP lysis buffer 20 mM Tris-HCl pH 7.5, 150 mM NaCl, 1 mM EDTA, 1% Triton X-100; protein G-agarose; WB
[5] = biological target: Myc-importin α5 (human (cDNA amplified from U87 cells)) (UniProt P52294); assay: co-IP; Myc-importin α5 and HA-TRIM59 S308D co-expressed with Flag-PIN1 WT or PIN1 C113A mutant in LN229 cells
[6] = biological target: Flag-tagged importin α5 (human (cDNA amplified from U87 cells)) (UniProt P52294); assay: co-IP; Flag-tagged importin α proteins and HA-tagged TRIM59 (WT, S308A, NLS-mut) co-expressed in LN229/EGFR cells, with or without EGF (100 ng/ml) for 6 h
[7] = biological target: Flag-tagged CDK5 wild type (human (cDNA amplified from U87 cells)) (UniProt Q00535); assay: co-IP; Supplementary Fig. 4: ectopic expression of TRIM59 (increasing dose; WT, S308A, S308D) and CDK5 WT or KD; method, cells and tags not given

Molecule: macroH2A1.1 (mH2A1.1), endogenous (from UniProt O75367-2 1-369)
- binding [1]: binds

Molecule: macroH2A1.2 (mH2A1.2), endogenous (from UniProt O75367-1 1-372)
- binding [1]: binds

B1: T cell protein tyrosine phosphatase (TC45) (enzyme, UniProt P17706-2 1-387)
chain: MPTTIEREFEELDTQRRWQPLYLEIRNESHDYPHRVAKFPENRNRNRYRDVSPYDHSRVKLQNAENDYINASLVDIEEAQRSYILTQGPLPNTCCHFWLMVWQQKTKAVVMLNRIVEKESVKCAQYWPTDDQEMLFKETGFSVKLLSEDVKSYYTVHLLQLENINSGETRTISHFHYTTWPDFGVPESPASFLNFLFKVRESGSLNPDHGPAVIHCSAGIGRSGTFSLVDTCLVLMEKGDDINIKQVLLNMRKYRMGLIQTPDQLRFSYMAIIEGAKCIKGDSSIQKRWKELSKEDLSPAFDHSPNKIMTEKYNGNRIGLEEEKLTGDRCTGLSSKMQDTMEENSESALRKRIREDRKATTAQKVQQMKQRLNENERKRKRPRLTDT
- binding [2]: binds

B2: Tripartite motif-containing 59 (TRIM59), endogenous (protein, UniProt Q8IWR1 1-403)
chain: MHNFEEELTCPICYSIFEDPRVLPCSHTFCRNCLENILQASGNFYIWRPLRIPLKCPNCRSITEIAPTGIESLPVNFALRAIIEKYQQEDHPDIVTCPEHYRQPLNVYCLLDKKLVCGHCLTIGQHHGHPIDDLQSAYLKEKDTPQKLLEQLTDTHWTDLTHLIEKLKEQKSHSEKMIQGDKEAVLQYFKELNDTLEQKKKSFLTALCDVGNLINQEYTPQIERMKEIREQQLELMALTISLQEESPLKFLEKVDDVRQHVQILKQRPLPEVQPVEIYPRVSKILKEEWSRTEIGQIKNVLIPKMKISPKRMSCSWPGKDEKEVEFLKILNIVVVTLISVILMSILFFNQHIITFLSEITLIWFSEASLSVYQSLSNSLHKVKNILCHIFYLLKEFVWKIVSH
- binding [3]: binds
- binding [4]: binds

B3: HA-TRIM59 S308D (protein, UniProt Q8IWR1 1-403)
chain: MHNFEEELTCPICYSIFEDPRVLPCSHTFCRNCLENILQASGNFYIWRPLRIPLKCPNCRSITEIAPTGIESLPVNFALRAIIEKYQQEDHPDIVTCPEHYRQPLNVYCLLDKKLVCGHCLTIGQHHGHPIDDLQSAYLKEKDTPQKLLEQLTDTHWTDLTHLIEKLKEQKSHSEKMIQGDKEAVLQYFKELNDTLEQKKKSFLTALCDVGNLINQEYTPQIERMKEIREQQLELMALTISLQEESPLKFLEKVDDVRQHVQILKQRPLPEVQPVEIYPRVSKILKEEWSRTEIGQIKNVLIPKMKIDPKRMSCSWPGKDEKEVEFLKILNIVVVTLISVILMSILFFNQHIITFLSEITLIWFSEASLSVYQSLSNSLHKVKNILCHIFYLLKEFVWKIVSH
- binding [5]: binds

B4: HA-tagged TRIM59 wild type (protein, UniProt Q8IWR1 1-403)
chain: MHNFEEELTCPICYSIFEDPRVLPCSHTFCRNCLENILQASGNFYIWRPLRIPLKCPNCRSITEIAPTGIESLPVNFALRAIIEKYQQEDHPDIVTCPEHYRQPLNVYCLLDKKLVCGHCLTIGQHHGHPIDDLQSAYLKEKDTPQKLLEQLTDTHWTDLTHLIEKLKEQKSHSEKMIQGDKEAVLQYFKELNDTLEQKKKSFLTALCDVGNLINQEYTPQIERMKEIREQQLELMALTISLQEESPLKFLEKVDDVRQHVQILKQRPLPEVQPVEIYPRVSKILKEEWSRTEIGQIKNVLIPKMKISPKRMSCSWPGKDEKEVEFLKILNIVVVTLISVILMSILFFNQHIITFLSEITLIWFSEASLSVYQSLSNSLHKVKNILCHIFYLLKEFVWKIVSH
- binding [6]: binds

B5: TRIM59 wild type, exogenous (tag not stated) (protein, UniProt Q8IWR1 1-403)
chain: MHNFEEELTCPICYSIFEDPRVLPCSHTFCRNCLENILQASGNFYIWRPLRIPLKCPNCRSITEIAPTGIESLPVNFALRAIIEKYQQEDHPDIVTCPEHYRQPLNVYCLLDKKLVCGHCLTIGQHHGHPIDDLQSAYLKEKDTPQKLLEQLTDTHWTDLTHLIEKLKEQKSHSEKMIQGDKEAVLQYFKELNDTLEQKKKSFLTALCDVGNLINQEYTPQIERMKEIREQQLELMALTISLQEESPLKFLEKVDDVRQHVQILKQRPLPEVQPVEIYPRVSKILKEEWSRTEIGQIKNVLIPKMKISPKRMSCSWPGKDEKEVEFLKILNIVVVTLISVILMSILFFNQHIITFLSEITLIWFSEASLSVYQSLSNSLHKVKNILCHIFYLLKEFVWKIVSH
- binding [7]: binds

B6: HA-TRIM59 S308A (protein, UniProt Q8IWR1 1-403)
chain: MHNFEEELTCPICYSIFEDPRVLPCSHTFCRNCLENILQASGNFYIWRPLRIPLKCPNCRSITEIAPTGIESLPVNFALRAIIEKYQQEDHPDIVTCPEHYRQPLNVYCLLDKKLVCGHCLTIGQHHGHPIDDLQSAYLKEKDTPQKLLEQLTDTHWTDLTHLIEKLKEQKSHSEKMIQGDKEAVLQYFKELNDTLEQKKKSFLTALCDVGNLINQEYTPQIERMKEIREQQLELMALTISLQEESPLKFLEKVDDVRQHVQILKQRPLPEVQPVEIYPRVSKILKEEWSRTEIGQIKNVLIPKMKIAPKRMSCSWPGKDEKEVEFLKILNIVVVTLISVILMSILFFNQHIITFLSEITLIWFSEASLSVYQSLSNSLHKVKNILCHIFYLLKEFVWKIVSH
- binding [6]: binds
